Assay results taken from the supplement of paper PMC9233669.
This sample is rich in variants without activity.

Columns and labels:
biotinyl-Trp-oxazolone = experiment: self-aminoacylation, catalytic enhancement (BWO) (fold over background); higher = more active; k-Seq, kA / k0A0; sequences stand for … in GGGAAUGGAUCCACAUCUACGAAUUC…UUCACUGCAGACUUGACGAAGCUG
Procedure, shortened: (§1)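 The uncatalyzed rate is the low-activity peak of a bimodal Gaussian fit, and catalytic enhancement is median kA divided by it. The kA values came from pseudo-first-order fits, with 1000 bootstraps, of per-sequence fraction reacted measured by streptavidin capture, triplicate qPCR and Illumina sequencing. Mutagenized RNA pools with a 21-nt variable region (0.43 μM) were reacted with each biotinyl-aminoacyl-oxazolone at 2–1250 μM in 50 μL HEPES/NaCl/KCl/MgCl2/CaCl2 buffer with 5% acetonitrile, pH 6.9–7.0, for 90 minutes at room temperature.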

biotinyl-Leu-oxazolone = experiment: self-aminoacylation, catalytic enhancement (BLO) (fold over background); higher = more active; k-Seq, kA / k0A0; sequences stand for … in GGGAAUGGAUCCACAUCUACGAAUUC…UUCACUGCAGACUUGACGAAGCUG
Procedure, shortened: as §1

biotinyl-Val-oxazolone = experiment: self-aminoacylation, catalytic enhancement (BVO) (fold over background); higher = more active; k-Seq, kA / k0A0; sequences stand for … in GGGAAUGGAUCCACAUCUACGAAUUC…UUCACUGCAGACUUGACGAAGCUG
Procedure, shortened: as §1

biotinyl-Ile-oxazolone = experiment: self-aminoacylation, catalytic enhancement (BIO) (fold over background); higher = more active; k-Seq, kA / k0A0; sequences stand for … in GGGAAUGGAUCCACAUCUACGAAUUC…UUCACUGCAGACUUGACGAAGCUG
Procedure, shortened: as §1

biotinyl-Met-oxazolone = experiment: self-aminoacylation, catalytic enhancement (BMO) (fold over background); higher = more active; k-Seq, kA / k0A0; sequences stand for … in GGGAAUGGAUCCACAUCUACGAAUUC…UUCACUGCAGACUUGACGAAGCUG
Procedure, shortened: as §1

biotinyl-Phe-oxazolone = experiment: self-aminoacylation, catalytic enhancement (BFO) (fold over background); higher = more active; k-Seq, kA / k0A0; sequences stand for … in GGGAAUGGAUCCACAUCUACGAAUUC…UUCACUGCAGACUUGACGAAGCUG
Procedure, shortened: as §1

Row | Sequence | self-aminoacylation (biotinyl-Trp-oxazolone) | self-aminoacylation (biotinyl-Leu-oxazolone) | self-aminoacylation (biotinyl-Val-oxazolone) | self-aminoacylation (biotinyl-Ile-oxazolone) | self-aminoacylation (biotinyl-Met-oxazolone) | self-aminoacylation (biotinyl-Phe-oxazolone)
1 | AUUACCCUGGUCAUCGAAUGG [Fam2.1 aminoacylation ribozyme variant] | 0.541 | 0.689 | 0.828 | 0.74 | 0.774 | 0.745
2 | AUUACCCUGGUCAUCGAAUGU [Fam2.1 aminoacylation ribozyme variant] | 0.653 | 1.06 | 0.788 | 0.894 | 0.925 | 0.64
3 | AUUACCCUGGUCAUCGACGGA [Fam2.1 aminoacylation ribozyme variant] | 1.76 | 1.39 | 0.964 | 1.07 | 1.52 | 1.33
4 | AUUACCCUGGUCAUCGACUGA [Fam2.1 aminoacylation ribozyme variant] | 0.577 | 0.767 | 0.901 | 0.838 | 0.756 | 0.61
5 | AUUACCCUGGUCAUCGAUCGA [Fam2.1 aminoacylation ribozyme variant] | 0.857 | 0.95 | 0.79 | 1.25 | 0.842 | 0.529
6 | AUUACCCUGGUCAUUUAGUGA [Fam2.1 aminoacylation ribozyme variant] | 14.4 | 11.1 | 5.82 | 5.57 | 11.7 | 70
7 | AUUACCCUGGUCCUCGAGUAA [Fam2.1 aminoacylation ribozyme variant] | 1.64 | 1.33 | 1.36 | 1.35 | 0.966 | 0.542
8 | AUUACCCUGGUGAUCGAGUUA [Fam2.1 aminoacylation ribozyme variant] | 0.848 | 0.838 | 0.99 | 0.887 | 1.1 | 0.818
9 | AUUACCCUGGUGGUCGAGUGA [Fam2.1 aminoacylation ribozyme variant] | 1.83 | 1.95 | 1.61 | 1.47 | 2.28 | 12.8
10 | AUUACCCUGGUUAUCGGGUGA [Fam2.1 aminoacylation ribozyme variant] | 14.8 | 13.6 | 6.66 | 5.12 | 12.8 | 94.3
11 | AUUACCCUGUUCAUCCAGUGA [Fam2.1 aminoacylation ribozyme variant] | 8.43 | 5.85 | 3.52 | 3.76 | 5.95 | 23
12 | AUUACCCUGUUCAUCGAGUCA [Fam2.1 aminoacylation ribozyme variant] | 0.671 | 0.956 | 1.08 | 1.17 | 0.829 | 1.02
13 | AUUACCCUGUUCAUCGAUUGA [Fam2.1 aminoacylation ribozyme variant] | 1.03 | 1.01 | 1.2 | 1.27 | 0.992 | 1.02
14 | AUUACCCUUGUCAUCGAGUGC [Fam2.1 aminoacylation ribozyme variant] | 0.814 | 1.11 | 1.07 | 1.09 | 0.925 | 1.11
15 | AUUACCGUGGUCAUCGAUUGA [Fam2.1 aminoacylation ribozyme variant] | 0.695 | 1.17 | 1.08 | 0.997 | 1.2 | 0.63
16 | AUUACCUUGGUCAUCGAGGGA [Fam2.1 aminoacylation ribozyme variant] | 1.78 | 1.91 | 1.48 | 1.37 | 1.68 | 0.715
17 | AUUACCUUGGUCAUCGAGUAA [Fam2.1 aminoacylation ribozyme variant] | 1 | 1.3 | 1.23 | 1.25 | 1.23 | 1.22
18 | AUUACCUUGGUCAUCGUGUGA [Fam2.1 aminoacylation ribozyme variant] | 3.57 | 2.71 | 1.57 | 1.53 | 2.55 | 16.2
19 | AUUACGCUGGUCCUCGAGUGA [Fam2.1 aminoacylation ribozyme variant] | 6.54 | 6.05 | 4.14 | 4.15 | 6.22 | 44.8
20 | AUUACUCUGGUCUUCGAGUGA [Fam2.1 aminoacylation ribozyme variant] | 7.1 | 5.04 | 2.85 | 3.13 | 5.11 | 21.2
21 | AUUAGCCUCGUCAUCGAGUGA [Fam2.1 aminoacylation ribozyme variant] | 1.3 | 1.61 | 1.32 | 1.53 | 1.38 | 2.19
22 | AUUAGCCUGGUCAUCGAGUGA [Fam2.1 aminoacylation ribozyme variant] | 9.2 | 7.65 | 4.55 | 4.61 | 7.22 | 21.7
23 | AUUAUCCUGGCCAUCGAGUGA [Fam2.1 aminoacylation ribozyme variant] | 2.77 | 2.98 | 1.69 | 1.92 | 2.99 | 13.8
24 | AUUAUCCUGGUCGUCGAGUGA [Fam2.1 aminoacylation ribozyme variant] | 1.03 | 1.01 | 0.911 | 1.01 | 1.07 | 0.709
25 | AUUCAACUCGGUCAUCGGGUG [Fam2.2 aminoacylation ribozyme variant] | 7.4 | 9.77 | 3.84 | 4.15 | 6.48 | 67.4
26 | AUUCACCAAGGUCGUCGGGUG [Fam2.2 aminoacylation ribozyme variant] | 2.29 | 3.05 | 2.58 | 2.09 | 2.2 | 12.9

Row | Sequence | self-aminoacylation (biotinyl-Trp-oxazolone) | self-aminoacylation (biotinyl-Leu-oxazolone) | self-aminoacylation (biotinyl-Val-oxazolone) | self-aminoacylation (biotinyl-Ile-oxazolone) | self-aminoacylation (biotinyl-Met-oxazolone) | self-aminoacylation (biotinyl-Phe-oxazolone)
27 | AUUCACCCAGGUCAUCGAGUG [Fam2.2 aminoacylation ribozyme variant] | 1.39 | 1.43 | 1.39 | 1.27 | 1.45 | 1
28 | AUUCACCCAUGUCAUCGGGUG [Fam2.2 aminoacylation ribozyme variant] | 5.22 | 7.33 | 3.15 | 3.72 | 6.58 | 46.4
29 | AUUCACCGAGAUCAUCGGGUG [Fam2.2 aminoacylation ribozyme variant] | 7.09 | 8.53 | 4.27 | 3.88 | 6.77 | 49.8
30 | AUUCACCGAGGUCAUCUGGUG [Fam2.2 aminoacylation ribozyme variant] | 3.61 | 5.72 | 2.69 | 2.39 | 4.31 | 34.6
31 | AUUCACCUAAGUCACCGGGUG [Fam2.2 aminoacylation ribozyme variant] | 5.67 | 8.36 | 4.88 | 4.72 | 7.03 | 53.8
32 | AUUCACCUACGUCAUCGGGUC [Fam2.2 aminoacylation ribozyme variant] | 0.963 | 1.36 | 1.21 | 1.17 | 1.25 | 4.31
33 | AUUCACCUAGAUCAUCGGAUG [Fam2.2 aminoacylation ribozyme variant] | 0.536 | 0.709 | 0.851 | 0.775 | 0.708 | 0.602
34 | AUUCACCUAGCUCCUCGGGUG [Fam2.2 aminoacylation ribozyme variant] | 1.35 | 2.24 | 1.27 | 1.13 | 1.52 | 5.19
35 | AUUCACCUAGGUCAACGGGAG [Fam2.2 aminoacylation ribozyme variant] | 0.522 | 0.826 | 0.879 | 0.89 | 0.711 | 0.42
36 | AUUCACCUAGGUCAACGGUUG [Fam2.2 aminoacylation ribozyme variant] | 0.94 | 0.71 | 0.808 | 0.852 | 0.808 | 1.03
37 | AUUCACCUAGGUCACCUGGUG [Fam2.2 aminoacylation ribozyme variant] | 1.61 | 1.81 | 1.66 | 1.53 | 1.79 | 8.5
38 | AUUCACCUAGGUCAGCGAGUG [Fam2.2 aminoacylation ribozyme variant] | 5.84 | 6.37 | 3.34 | 3.44 | 4.93 | 25.3
39 | AUUCACCUAGGUCAUAGAGUG [Fam2.2 aminoacylation ribozyme variant] | 2.12 | 3.92 | 2.08 | 2.23 | 2.98 | 10.1
40 | AUUCACCUAGGUCAUAGGGAG [Fam2.2 aminoacylation ribozyme variant] | 0.643 | 0.988 | 1.1 | 0.905 | 0.779 | 1.17
41 | AUUCACCUAGGUCAUCAGGUC [Fam2.2 aminoacylation ribozyme variant] | 0.493 | 0.504 | 0.602 | 0.589 | 0.469 | 0.477
42 | AUUCACCUAGGUCAUCGGCUU [Fam2.2 aminoacylation ribozyme variant] | 3.27 | 2.3 | 2.02 | 2.1 | 2.26 | 6.3
43 | AUUCACCUAGGUCAUCGUGAG [Fam2.2 aminoacylation ribozyme variant] | 0.534 | 0.697 | 0.847 | 0.701 | 0.854 | 0.588
44 | AUUCACCUAGGUCAUCGUGGG [Fam2.2 aminoacylation ribozyme variant] | 0.781 | 1.19 | 1.15 | 0.893 | 1.24 | 1.03
45 | AUUCACCUAGGUCAUCUGGUA [Fam2.2 aminoacylation ribozyme variant] | 0.722 | 1.03 | 1.21 | 1.22 | 0.952 | 0.671
46 | AUUCACCUAGGUCCUCGGGAG [Fam2.2 aminoacylation ribozyme variant] | 1.29 | 2.11 | 1.38 | 1.29 | 0.981 | 2.83
47 | AUUCACCUAGGUCGUCCGGUG [Fam2.2 aminoacylation ribozyme variant] | 2.39 | 3.89 | 2.35 | 2.52 | 3.34 | 14.4
48 | AUUCACCUAGGUGAACGGGUG [Fam2.2 aminoacylation ribozyme variant] | 0.755 | 1.12 | 1.09 | 0.817 | 0.999 | 0.319
49 | AUUCACCUAGGUGAUCAGGUG [Fam2.2 aminoacylation ribozyme variant] | 1.92 | 1.63 | 1.43 | 1.52 | 1.72 | 1.46
50 | AUUCACCUAGGUGAUCGUGUG [Fam2.2 aminoacylation ribozyme variant] | 0.927 | 1.17 | 0.819 | 0.783 | 0.855 | 0.374
51 | AUUCACCUAGGUUAUCGGUUG [Fam2.2 aminoacylation ribozyme variant] | 0.67 | 1.31 | 0.898 | 0.766 | 0.833 | 0.661
